Results taken from paper doi:10.1101/2023.03.07.531595.

T1: Tld1-mNeonGreen (Saccharomyces cerevisiae) (UniProt Q05611)
T1 sequence: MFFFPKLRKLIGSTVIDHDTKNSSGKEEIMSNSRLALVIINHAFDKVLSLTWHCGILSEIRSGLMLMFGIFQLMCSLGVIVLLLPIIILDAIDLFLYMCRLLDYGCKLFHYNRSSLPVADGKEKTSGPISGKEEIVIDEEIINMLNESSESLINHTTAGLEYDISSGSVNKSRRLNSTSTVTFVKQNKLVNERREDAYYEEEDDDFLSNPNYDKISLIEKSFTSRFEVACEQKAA


Target: T1, Tld1-mNeonGreen (Saccharomyces cerevisiae)
Experiment: affinity purification with mass spectrometry

Binder	binding
Eht1 (protein, UniProt P38295 1-451) MSEVSKWPAINPFHWGYNGTVSHIVGENGSIKLHLKDNKEQVDFDEFANKYVPTLKNGAQFKLSPYLFTGILQTLYLGAADFSKKFPVFYGREIVKFSDGGVCTADWLIDSWKKDYEFDQSTTSFDKKKFDKDEKATHPEGWPRLQPRTRYLKDNELEELREVDLPLVVILHGLAGGSHEPIIRSLAENLSRSGRFQVVVLNTRGCARSKITTRNLFTAYHTMDIREFLQREKQRHPDRKLYAVGCSFGATMLANYLGEEGDKSPLSAAATLCNPWDLLLSAIRMSQDWWSRTLFSKNIAQFLTRTVQVNMGELGVPNGSLPDHPPTVKNPSFYMFTPENLIKAKSFKSTREFDEVYTAPALGFPNAMEYYKAASSINRVDTIRVPTLVINSRDDPVVGPDQPYSIVEKNPRILYCRTDLGGHLAYLDKDNNSWATKAIAEFFTKFDELVV	binds
Erg6 (protein, UniProt P25087 1-383) MSETELRKRQAQFTRELHGDDIGKKTGLSALMSKNNSAQKEAVQKYLRNWDGRTDKDAEERRLEDYNEATHSYYNVVTDFYEYGWGSSFHFSRFYKGESFAASIARHEHYLAYKAGIQRGDLVLDVGCGVGGPAREIARFTGCNVIGLNNNDYQIAKAKYYAKKYNLSDQMDFVKGDFMKMDFEENTFDKVYAIEATCHAPKLEGVYSEIYKVLKPGGTFAVYEWVMTDKYDENNPEHRKIAYEIELGDGIPKMFHVDVARKALKNCGFEVLVSEDLADNDDEIPWYYPLTGEWKYVQNLANLATFFRTSYLGRQFTTAMVTVMEKLGLAPEGSKEVTAALENAAVGLVAGGKSKLFTPMMLFVARKPENAETPSQTSQEATQ	binds
Hfd1 (protein, UniProt Q04458 1-532) MSNDGSKILNYTPVSKIDEIVEISRNFFFEKQLKLSHENNPRKKDLEFRQLQLKKLYYAVKDHEEELIDAMYKDFHRNKIESVLNETTKLMNDILHLIEILPKLIKPRRVSDSSPPFMFGKTIVEKISRGSVLIIAPFNFPLLLAFAPLAAALAAGNTIVLKPSELTPHTAVVMENLLTTAGFPDGLIQVVQGAIDETTRLLDCGKFDLIFYTGSPRVGSIVAEKAAKSLTPCVLELGGKSPTFITENFKASNIKIALKRIFFGAFGNSGQICVSPDYLLVHKSIYPKVIKECESVLNEFYPSFDEQTDFTRMIHEPAYKKAVASINSTNGSKIVPSKISINSDTEDLCLVPPTIVYNIGWDDPLMKQENFAPVLPIIEYEDLDETINKIIEEHDTPLVQYIFSDSQTEINRILTRLRSGDCVVGDTVIHVGITDAPFGGIGTSGYGNYGGYYGFNTFSHERTIFKQPYWNDFTLFMRYPPNSAQKEKLVRFAMERKPWFDRNGNNKWGLRQYFSLSAAVILISTIYAHCSS	binds
Faa1 (protein, UniProt P30624 1-700) MVAQYTVPVGKAANEHETAPRRNYQCREKPLVRPPNTKCSTVYEFVLECFQKNKNSNAMGWRDVKEIHEESKSVMKKVDGKETSVEKKWMYYELSHYHYNSFDQLTDIMHEIGRGLVKIGLKPNDDDKLHLYAATSHKWMKMFLGAQSQGIPVVTAYDTLGEKGLIHSLVQTGSKAIFTDNSLLPSLIKPVQAAQDVKYIIHFDSISSEDRRQSGKIYQSAHDAINRIKEVRPDIKTFSFDDILKLGKESCNEIDVHPPGKDDLCCIMYTSGSTGEPKGVVLKHSNVVAGVGGASLNVLKFVGNTDRVICFLPLAHIFELVFELLSFYWGACIGYATVKTLTSSSVRNCQGDLQEFKPTIMVGVAAVWETVRKGILNQIDNLPFLTKKIFWTAYNTKLNMQRLHIPGGGALGNLVFKKIRTATGGQLRYLLNGGSPISRDAQEFITNLICPMLIGYGLTETCASTTILDPANFELGVAGDLTGCVTVKLVDVEELGYFAKNNQGEVWITGANVTPEYYKNEEETSQALTSDGWFKTGDIGEWEANGHLKIIDRKKNLVKTMNGEYIALEKLESVYRSNEYVANICVYADQSKTKPVGIIVPNHAPLTKLAKKLGIMEQKDSSINIENYLEDAKLIKAVYSDLLKTGKDQGLVGIELLAGIVFFDGEWTPQNGFVTSAQKLKRKDILNAVKDKVDAVYSSS	binds

Results, then the binder that gave them:

binding	Binder
no binding	Tgl4 (enzyme, UniProt P36165 1-910) MSSKISDLTSTQNKPLLVTQQLIEKYYEQILGTSQNIIPILNPKNKFIRPSKDNSDVERVEEDAGKRLQTGKNKTTNKVNFNLDTGNEDKLDDDQETVTENENNDIEMVETDEGEDERQGSSLASKCKSFLYNVFVGNYERDILIDKVCSQKQHAMSFEEWCSAGARLDDLTGKTEWKQKLESPLYDYKLIKDLTSRMREERLNRNYAQLLYIIRTNWVRNLGNMGNVNLYRHSHVGTKYLIDEYMMESRLALESLMESDLDDSYLLGILQQTRRNIGRTALVLSGGGTFGLFHIGVLGTLFELDLLPRVISGSSAGAIVASILSVHHKEEIPVLLNHILDKEFNIFKDDKQKSESENLLIKISRFFKNGTWFDNKHLVNTMIEFLGDLTFREAYNRTGKILNITVSPASLFEQPRLLNNLTAPNVLIWSAVCASCSLPGIFPSSPLYEKDPKTGERKPWTGSSSVKFVDGSVDNDLPISRLSEMFNVDHIIACQVNIHVFPFLKLSLSCVGGEIEDEFSARLKQNLSSIYNFMANEAIHILEIGSEMGIAKNALTKLRSVLSQQYSGDITILPDMCMLFRIKELLSNPTKEFLLREITNGAKATWPKVSIIQNHCGQEFALDKAISYIKGRMIVTSSLKTPFQFADSVIGLIKAPEQTSDESKNPENSTLLTRTPTKGDNHISNVLDDNLLESESTNSLLLLRENASTYGRSPSGFRPRYSITSASLNPRHQRRKSDTISTSRRPAKSFSFSVASPTSRMLRQSSKINGHPPPILQKKTSMGRLMFPMDAKTYDPESHELIPHSASIETPAMVDKKLHFGRKSRYLRHMNKKWVSSSNILYTDSDKEDHPTLRLISNFDSDAMIHSDLAGNFRRHSIDGRPPSQATKSSPFRSRPSSSTQHKSTTSFTQ
no binding	Tgl3 (enzyme, UniProt P40308 1-642) MKETAQEYKVSAVIPTLLKNWILRVVYATLDHIPPFVWEILHVITDIYFFWVQKLINYVRPHSRVIYYNAIKKLDECDTYQMWCQQASVVDEITGANLWRRNFFSRRYDFNSVIEQYSILENMLREEKYDVVKEKFSTTGPCMLRNFAGIGDKKLFTKSLMGTKLLIEQYLTRILEGLDILNNQTLTPTSFFQRCKLSLGTTALILQGGSLFGLFHLGVIRGLLLQDLMPNIISGSSMGACVASLFGCLSNEQLKQLLTDDNLLNIIKNDVDLLKSCGYGNLEQHLNLGTLIQNLIHHGYSQDVYLFIRFVMKYIVKEKTFEEVYQITGKVFNIVIHPTDKSCPNLLNYVTTPNVLIKSAIECSLGSGVISEDTSLLCKNLENEIEPFLNINKNKQVKFLTPENANNPSITESPYTRLTELFNVNNFIVSLARPYLAPLVVNDLKHEIKTSKYYYYKHYPNMPPINANTVRKTQRSSSQSPIKAGTVEDLEPEPLMSPVPPSSAVNDSAEYIIPELGIPQLNFTEMEPLAFKFKYHLERKLKNIATMEFRHRMEVLDNLGLLCSLIKRLIIDEKTPRSATEIAVVPRMKSLSLTRIIEGQLNNIPYWIKSGERSTWPALALIKTRCAVEFKLDDIIRARRSR
no binding	Tgl5 (enzyme, UniProt Q12043 1-749) MSNTLPVTEFLLSKYYELSNTPATDSSSLFKWLYHKTLSRKQLLISDLSSQKKHAISYDQWNDIASRLDDLTGLSEWKTIDESSLYNYKLLQDLTIRMRHLRTTHDYHRLLYLIRTKWVRNLGNMNNVNLYRHSHTGTKQIIHDYLEESQAVLTALIHQSNMNDHYLLGILQQTRRNIGRTALVLSGGSTFGLFHIGVLAALFESDLMPKVISGSSAGAIVASIFCVHTTQEIPSLLTNVLNMEFNIFNDDNSKSPNENLLIKISRFCQNGTWFNNQPLINTMLSFLGNLTFREAYNKTGKILNITVSPASIYEQPKLLNNLTAPNVLIWSAVCASCSLPGVFPSTPLFEKDPHTGKIKEWGATNLHLSNMKFMDGSVDNDMPISRLSEMFNVDHIIACQVNIHVFPLLKFSNTCVGGEIEKEITARFRNQVTKIFKFFSDETIHFLDILKELEFHPYLMTKLKHLFLQQYSGNVTILPDLSMVGQFHEVLKNPSQLFLLHQTTLGARATWPKISMIQNNCGQEFALDKAITFLKEKIIISSSIKNPLQFYQPRFSEQIKSLSIMDADLPGVDLEESSSNSLSIIKSPNKTAAPGRFPLQPLPSPSSTFNKRKMDMLSPSPSPSTSPQRSKSSFTQQGTRQKANSLSFAIGASSLRLKKSPLKVPSRPQFKKRSSYYNQNMSAEMRKNRKKSGTISSYDVQTNSEDFPIPAIENGSFDNTLFNPSRFPMDAMSAATNDNFMNNSDIFQN

Results are given in words; binding and its absence hold for the method and conditions named. In cells and extracts the contact can be indirect. Here binding means that the protein was enriched with, or labelled near, the bait; the list need not be complete. No binding means not detected with the bait. Sequences can lack the tags named with a protein.
